Results reported in PMC7819943, “Rice protein-binding microarrays: a tool to detect cis-acting elements near promoter regions in rice”.
Some of the results follow.

Molecular target: T1, OsSMF1 (Oryza sativa, UniProt Q6ZLB0 1-436)
T1 sequence: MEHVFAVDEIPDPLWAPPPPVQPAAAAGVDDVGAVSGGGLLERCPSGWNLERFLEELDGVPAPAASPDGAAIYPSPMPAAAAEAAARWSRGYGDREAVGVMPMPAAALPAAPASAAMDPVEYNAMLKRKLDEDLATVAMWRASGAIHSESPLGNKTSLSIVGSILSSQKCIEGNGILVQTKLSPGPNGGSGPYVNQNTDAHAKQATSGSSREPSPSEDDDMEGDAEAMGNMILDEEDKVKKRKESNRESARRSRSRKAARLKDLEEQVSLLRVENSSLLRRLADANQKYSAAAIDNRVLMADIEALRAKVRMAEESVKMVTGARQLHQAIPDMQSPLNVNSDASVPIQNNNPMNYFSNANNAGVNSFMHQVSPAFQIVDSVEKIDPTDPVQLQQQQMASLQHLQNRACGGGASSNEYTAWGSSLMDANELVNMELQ
Experiment: protein-binding microarray (RPBM); PBS, 2% BSA, 51.3 ng/ul salmon testes DNA, 50 uM zinc acetate, 200 nM TF, 25 C, 1 h; high values mean tight binding
Details: protein: recombinant; tags: N-terminal polyhistidine and DsRed monomer fusion (pET32a); chain copies: 2; label: CyDye5-dUTP incorporated in the synthesized complementary strand; 3' TTTTT single-stranded linker to array surface; dsDNA, one strand shown
Outline: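 The binding signal for each feature is its fluorescence intensity in arbitrary units. An Axon 4000B scanner was used to read a custom Agilent array that had been made double-stranded with Cy5-dUTP primer extension, blocked with 2% BSA, incubated at 25 °C for 1 h with 200 nM protein in PBS, 2% BSA, salmon testes DNA and 50 µM zinc acetate, and washed. The protein was an N-terminal polyhistidine–DsRed transcription factor fusion from E. coli BL21-CodonPlus, purified on Ni–NTA.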

Row | Sequence | binding signal
1 | AGCATGCACCTTGATCACGGGAACGAGCTAGCGAGAGGCACGGAGTCACCTAGTGCAG | 3720 fluorescence intensity (a.u.)
2 | GAAAAGACATATAATACGACGTGTGTTTTATTGCTTAAATCGGAGTCACCTAGTGCAG | 6320 fluorescence intensity (a.u.)
3 | GCTGGATTCGAGGATGATCTCCATGTCGAAAGCGGCCTCACGGAGTCACCTAGTGCAG | 3750 fluorescence intensity (a.u.)
4 | GCAAAAGGGACTCATGAACAGCAAATCAGGGCCAAGTGGCCGGAGTCACCTAGTGCAG | 3570 fluorescence intensity (a.u.)
5 | TATCCATGCCTAACATTAGACCATCCGTCTTATTTGAAAACGGAGTCACCTAGTGCAG | 11600 fluorescence intensity (a.u.)
6 | CGGCCCATGTTAGTACCTAAGTACATGCGGCTTATATTAGCGGAGTCACCTAGTGCAG | 3810 fluorescence intensity (a.u.)
7 | TCACAAGTCGTTCCTCTTGTGCTTTTCACCTCGACTTGGCCGGAGTCACCTAGTGCAG | 25300 fluorescence intensity (a.u.)
8 | GGCTCCCTAAGGTACAGGGACAGGGATGGATTCCGTTGCTCGGAGTCACCTAGTGCAG | 3300 fluorescence intensity (a.u.)
9 | GGAGTAGATATTATCACTAGCTAGTCACACGGACACAGTGCGGAGTCACCTAGTGCAG | 4900 fluorescence intensity (a.u.)
10 | TTTCACTTTTCAGCCATGAGGCTGTCGTCCCTGCTGTTCTCGGAGTCACCTAGTGCAG | 15900 fluorescence intensity (a.u.)
11 | CATGCAGTCAATAGTGTGACTGTAACTTAAACGGTCACACCGGAGTCACCTAGTGCAG | 3750 fluorescence intensity (a.u.)
12 | GCGACTTGGTGGCTCGTACAGCTCACCCTCCTGAAACGAACGGAGTCACCTAGTGCAG | 3680 fluorescence intensity (a.u.)
13 | GGGGCTAGTAGCTTGGCCAGCGTGACGAGGCGGAAGCCCCCGGAGTCACCTAGTGCAG | 5060 fluorescence intensity (a.u.)
14 | ACTTGTCTGGTACATGTGTGCACAAAGATTGTAATTTTGTCGGAGTCACCTAGTGCAG | 19700 fluorescence intensity (a.u.)
15 | CCCAGAAACGAAGCCCATTGGGTAAGGACACGCGTCGGCGCGGAGTCACCTAGTGCAG | 4370 fluorescence intensity (a.u.)
16 | GCTTAATAAATTCGTCTCGCGGTTTAATGTTGGATTCTGTCGGAGTCACCTAGTGCAG | 3670 fluorescence intensity (a.u.)
17 | GGCCACAACCGTGTCTGCCAACGCCTCTTCCTCCTTGACTCGGAGTCACCTAGTGCAG | 3660 fluorescence intensity (a.u.)
18 | GCAAAATTTGATGGCATGGCGGCTGAGTTATGTATAGGTGCGGAGTCACCTAGTGCAG | 3900 fluorescence intensity (a.u.)
19 | CTCGCGTGCGTGTGTGTTGTGCTTTCCAGTGATCTCGCCGCGGAGTCACCTAGTGCAG | 3670 fluorescence intensity (a.u.)
20 | GGTCTGACTCCACAATGCTAAATGCGTTGTACTGTAGCAGCGGAGTCACCTAGTGCAG | 3220 fluorescence intensity (a.u.)
21 | GGCTAGCCAGCGACCGACCGGCGGCCACCGTGGCGGGATTCGGAGTCACCTAGTGCAG | 4850 fluorescence intensity (a.u.)

Looked up one by one from above, two records:
Row | Sequence | binding signal
11 | CATGCAGTCAATAGTGTGACTGTAACTTAAACGGTCACACCGGAGTCACCTAGTGCAG | 3750 fluorescence intensity (a.u.)
15 | CCCAGAAACGAAGCCCATTGGGTAAGGACACGCGTCGGCGCGGAGTCACCTAGTGCAG | 4370 fluorescence intensity (a.u.)

Continuation:

Row | Sequence | binding signal
22 | ATGTGCACAATGCACAGTGCACGTGTGTTTTCTGTGTAACCGGAGTCACCTAGTGCAG | 4540 fluorescence intensity (a.u.)
23 | AATTTGCTAGTCCCCACAAGTACGTGGCACTCTGCCATGTCGGAGTCACCTAGTGCAG | 13900 fluorescence intensity (a.u.)
24 | CTCCAGGTCATCGATCCAGGTGTCATTTTCAATGCCTTCACGGAGTCACCTAGTGCAG | 4190 fluorescence intensity (a.u.)
25 | CGTTTGGCCGCCAAGTCCTCATTCAGTCCAGGTCAGGGCGCGGAGTCACCTAGTGCAG | 4760 fluorescence intensity (a.u.)
26 | ACCACAGGGGCTTCTCCCTCGGCGCCGCCTGCTCCGGCGACGGAGTCACCTAGTGCAG | 23500 fluorescence intensity (a.u.)
27 | AGTTGAGGGACCTTGCGTGTACTTTTCCCTTTATTTTCTCCGGAGTCACCTAGTGCAG | 4210 fluorescence intensity (a.u.)
28 | GCTCAACGCCCTTCCTCACTCGCTTCGCACGTGCCTCCCTCGGAGTCACCTAGTGCAG | 3290 fluorescence intensity (a.u.)
29 | TAACCAATCCAACTATTCTGGGCAGCCAAATTGACTCAGACGGAGTCACCTAGTGCAG | 5030 fluorescence intensity (a.u.)
30 | GTTTATTTCATGTGTAGGTGACTCGATGCCTCGGGAGAGTCGGAGTCACCTAGTGCAG | 3700 fluorescence intensity (a.u.)
31 | CCACCTCGGTACGTGTTCGACATGTTGCGCATATTTGATCCGGAGTCACCTAGTGCAG | 4750 fluorescence intensity (a.u.)
32 | TAAGAGATTATTCGTGTGATGACGTATGAAGCAAGCGCAACGGAGTCACCTAGTGCAG | 8790 fluorescence intensity (a.u.)
33 | CGAACCGGCCGGAGACATCCTCACCGATGACGATGACGATCGGAGTCACCTAGTGCAG | 3840 fluorescence intensity (a.u.)
34 | CATGTGGACGTTCACCCGAGTATTTAAAACAGTTTCCGTGCGGAGTCACCTAGTGCAG | 7860 fluorescence intensity (a.u.)
35 | GTGGTGGGTATGTTGGCGTTATGATTCGATGCCCCTGAACCGGAGTCACCTAGTGCAG | 3870 fluorescence intensity (a.u.)
36 | CCGCACACTCCCGTCACGTTGCGGTACGGACACCCACACACGGAGTCACCTAGTGCAG | 4580 fluorescence intensity (a.u.)
37 | CGAGCCGAACTTCCCTGACGCCGAAGTAGAGCGGCTCGCCCGGAGTCACCTAGTGCAG | 3460 fluorescence intensity (a.u.)
38 | CGAGCTTGGTACGATTGGCGAGCAAGGCCATGCATGTCCACGGAGTCACCTAGTGCAG | 3520 fluorescence intensity (a.u.)
39 | CGGTGCACACCACCGGCGCTTCGTGTGCTACGCCACCACGCGGAGTCACCTAGTGCAG | 24800 fluorescence intensity (a.u.)
40 | AGGAGTCAAAGTAACACATCATTGTAAGCGGCAAGTACTTCGGAGTCACCTAGTGCAG | 4070 fluorescence intensity (a.u.)
41 | AGTGGGTGAGGGTTGTAGAGGAAGGCATGCGAAGGAAAATCGGAGTCACCTAGTGCAG | 3210 fluorescence intensity (a.u.)
42 | TTTCACCCGGGACTAAAGATCGCTATCTTTAGTCCCGGATCGGAGTCACCTAGTGCAG | 52600 fluorescence intensity (a.u.)
